# Measurements from the supplement of paper PMC9135407.
# Several values for one entry are separate records, joined by “and”; a condition that tells them apart may be missing. Identical values can stand only once. Counter-ions that a name gives are not always drawn. ± gives the standard deviation of the averaged measurements. This is one part of the list. Baselines shift from plate to plate; read single values as rough.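 Assay uses culture-activated primary human stellate myofibroblasts; lipid droplet recovery indicates inactivation. Measured: proportion of Hoechst-counted cells over a plate-specific Bodipy cutoff, duplicate wells, DMSO and nortriptyline as per-plate negative and positive controls. A hit scores, control-normalized, above the plate's top-tenth-percentile nortriptyline wells or ranks among its three best wells. Final well concentrations not reported.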
# Tested on: primary human hepatic stellate cells (donor 1)
# Experiment: percent Bodipy-positive cells; higher = more lipid droplet accumulation
# Details: 48 h
# [1] = library stock concentration: 3.33 mM
# [2] = library stock concentration: 10 mM
# [3] = library stock concentration: 80 uM
# [4] = library stock concentration: 400 uM
# [5] = library stock concentration: 2 mM
# [6] = library stock concentration: 5.7 mM
structure (smiles),measurement,setting,value
COc1cccc(C=NCCN=Cc2cccc(OC)c2[O-])c1[O-].[Cl-].[Mn+3],percent Bodipy-positive cells,[1],10.9 ± 2.7%
same,percent Bodipy-positive cells,[2],49.2 ± 0.78%
Cc1ccc(C(=O)Nc2cccc(C(F)(F)F)c2)cc1-c1ccc2nc(NCCN3CCOCC3)ncc2c1,percent Bodipy-positive cells,[2],89.2 ± 1.4%
CC(C)NC[C@@H](C(=O)N1CCN(c2ncnc3c2[C@H](C)C[C@H]3O)CC1)c1ccc(Cl)cc1,percent Bodipy-positive cells,[3],6.606 ± 0.018%
same,percent Bodipy-positive cells,[4],8.03 ± 3.1%
same,percent Bodipy-positive cells,[5],19.6 ± 4.5%
same,percent Bodipy-positive cells,[1],31.6 ± 11%
same,percent Bodipy-positive cells,[2],51.5 ± 18%
Cc1ccc([C@@H]2O[C@H](CO)[C@@H](O)[C@H](O)[C@H]2O)cc1Cc1ccc(-c2ccc(F)cc2)s1 [Canagliflozin],percent Bodipy-positive cells,[1],17.4 ± 10%
same,percent Bodipy-positive cells,[2],27.2 ± 7.8%
CC(C)(C)c1cc(C(C)(C)C)c(NC(=O)c2c[nH]c3ccccc3c2=O)cc1O [Ivacaftor (VX-770)],percent Bodipy-positive cells,[1],27.7 ± 4.9%
same,percent Bodipy-positive cells,[2],81.8 ± 12%
CC(=O)N(CC(O)CO)c1c(I)c(C(=O)NCCO)c(I)c(C(=O)NCC(O)CO)c1I (stereo not drawn),percent Bodipy-positive cells,[2],39.3 ± 12%
CN1CCN(CC(=O)N2c3ccccc3C(=O)Nc3cccnc32)CC1 [Pirenzepine dihydrochloride],percent Bodipy-positive cells,,24 ± 9.3%
same,percent Bodipy-positive cells,[2],11.5 ± 0.91%
CN1CCN(CC(=O)N2c3ccccc3C(=O)Nc3cccnc32)CC1 [Pirenzepine 2HCl],percent Bodipy-positive cells,[6],8.84 ± 2.9%
CN1CCN(CC(=O)N2c3ccccc3C(=O)Nc3cccnc32)CC1 [Pirenzepine hydrochloride],percent Bodipy-positive cells,library stock concentration: 4.7 mM,18.1 ± 4%
same,percent Bodipy-positive cells,[2],20.9 ± 0.4%
CO[C@H]1/C=C/O[C@@]2(C)Oc3c(C)c(O)c4c(O)c(c5c(nc6cc(C)ccn65)c4c3C2=O)NC(=O)/C(C)=C\C=C\[C@H](C)[C@H](O)[C@@H](C)[C@@H](O)[C@@H](C)[C@H](OC(C)=O)[C@@H]1C [Rifaximin],percent Bodipy-positive cells,[1],10.5 ± 1.7%
same,percent Bodipy-positive cells,[2],11.2 ± 0.84%
CO[C@H]1/C=C/O[C@@]2(C)Oc3c(C)c(O)c4c(O)c(c5c(nc6cc(C)ccn65)c4c3C2=O)NC(=O)/C(C)=C\C=C\[C@H](C)[C@H](O)[C@@H](C)[C@@H](O)[C@@H](C)[C@H](OC(C)=O)[C@@H]1C,percent Bodipy-positive cells,[2],13.3 ± 9.6%
Clc1cccc(Cl)c1NC1=NCCN1 [Clonidine hydrochloride],percent Bodipy-positive cells,,29.5 ± 9.1%
same,percent Bodipy-positive cells,library stock concentration: 7.5 mM,1.93 ± 1%
Clc1cccc(Cl)c1NC1=NCCN1 [Clonidine HCl],percent Bodipy-positive cells,[1],7.8 ± 6.3%
same,percent Bodipy-positive cells,library stock concentration: 8.7 mM,10.9 ± 0.053%
same,percent Bodipy-positive cells,[2],11.1 ± 1.9%
Clc1cccc(Cl)c1NC1=NCCN1,percent Bodipy-positive cells,[2],13.48 ± 0.014%
Clc1cccc(Cl)c1NC1=NCCN1 [Clonidine],percent Bodipy-positive cells,library stock concentration: 21.7 mM,32.7 ± 1.8%
CN(C)S(=O)(=O)c1ccc2c(c1)/C(=C/c1cc3c([nH]1)CCCC3)C(=O)N2,percent Bodipy-positive cells,[1],69.5 ± 6.8%
O=C1[C@H]2CCCC[C@H]2C(=O)N1CCCCN1CCN(c2nsc3ccccc23)CC1,percent Bodipy-positive cells,[2],35.8 ± 3%
C[C@]12C=CC(=O)N[C@@H]1CC[C@@H]1[C@@H]2CC[C@]2(C)[C@@H](C(=O)Nc3cc(C(F)(F)F)ccc3C(F)(F)F)CC[C@@H]12 [Dutasteride],percent Bodipy-positive cells,[1],14.5 ± 2.5%
same,percent Bodipy-positive cells,[2],72.2 ± 13%
N=C(N)NCCCCNC(=N)N [Arcaine sulfate],percent Bodipy-positive cells,,8.36 ± 0.86%
same,percent Bodipy-positive cells,[2],45.9 ± 8%
CCN(CC)c1ccc(/C=N/NC(=O)c2ccc(O)cc2)cc1,percent Bodipy-positive cells,[2],6.09 ± 0.45%
Cl.Nc1ccc(C(=O)Nc2cccc(-c3nc(N4CCOCC4)c4oc5ncccc5c4n3)c2)cn1,percent Bodipy-positive cells,[5],98.25 ± 0.85%
same,percent Bodipy-positive cells,[2],81.6 ± 1.8%
CCCNC(=O)NS(=O)(=O)c1ccc(Cl)cc1,percent Bodipy-positive cells,[2],24.5 ± 5.5%
CCCNC(=O)NS(=O)(=O)c1ccc(Cl)cc1 [Chlorpropamide],percent Bodipy-positive cells,,23.4 ± 16%
same,percent Bodipy-positive cells,[1],15.2 ± 11%
same,percent Bodipy-positive cells,library stock concentration: 7.2 mM,2.15 ± 0.63%
CCN(CC)C(C)CN1c2ccccc2Sc2ccccc21 (stereo not drawn) [Ethopropazine hydrochloride],percent Bodipy-positive cells,,47.2 ± 2.3%
same,percent Bodipy-positive cells,[6],45.6 ± 8.8%
CC(=O)O[C@]1(C(C)=O)CC[C@H]2[C@@H]3C=C(Cl)C4=CC(=O)CC[C@]4(C)[C@H]3CC[C@@]21C [Chlormadinone acetate],percent Bodipy-positive cells,library stock concentration: 4.5 mM,11.9 ± 1.1%
same,percent Bodipy-positive cells,library stock concentration: 4.9 mM,17.5 ± 1.4%
CN1CCN(CCc2ccc(Cl)c(Cl)c2)CC1 [BD 1063 dihydrochloride],percent Bodipy-positive cells,[2],46.2 ± 3.4%
Cc1cc(O)c(C(=O)N[C@@H](C(=O)N[C@@H]2C(=O)N3C(C(=O)O)=C(CSc4nnnn4C)CS[C@H]23)c2ccc(O)cc2)cn1,percent Bodipy-positive cells,[2],36.8 ± 8.4%
COc1ccc(-c2nc(N3CCOCC3)c3sc(CN(C)c4ncc(C(=O)NO)cn4)cc3n2)cn1,percent Bodipy-positive cells,[3],58.2 ± 2.2%
same,percent Bodipy-positive cells,[4],56.08 ± 0.5%
same,percent Bodipy-positive cells,[5],53.5 ± 3.4%
same,percent Bodipy-positive cells,[1],45.1 ± 3.1%
same,percent Bodipy-positive cells,[2],60.8% and 49.5%
COc1cc(-c2ncn(/C=C\C(=O)OC(C)C)n2)cc(C(F)(F)F)c1,percent Bodipy-positive cells,[1],40 ± 9.1%
same,percent Bodipy-positive cells,[2],64.6 ± 23%
Cc1cnc(Nc2ccc(OCCN3CCCC3)cc2)nc1Nc1cccc(S(=O)(=O)NC(C)(C)C)c1,percent Bodipy-positive cells,[3],24 ± 5.3%
same,percent Bodipy-positive cells,[4],37.2 ± 7.3%
same,percent Bodipy-positive cells,[5],71.8 ± 3.7%
same,percent Bodipy-positive cells,[1],90 ± 2.9%
same,percent Bodipy-positive cells,[2],98.8% and 100%
CNCCCN1c2ccccc2CCc2ccccc21.Cl [Desipramine hydrochloride],percent Bodipy-positive cells,,85.3 ± 3.5%
Cn1ncnc1[C@H]1c2n[nH]c(=O)c3cc(F)cc(c23)N[C@@H]1c1ccc(F)cc1,percent Bodipy-positive cells,[1],12.3 ± 2.7%
same,percent Bodipy-positive cells,[2],21.3 ± 9.5%
C=CCN(C)CCCCCCOc1ccc(C(=O)c2ccc(Br)cc2)c(F)c1,percent Bodipy-positive cells,library stock concentration: 1 mM,28.4 ± 12%
